From the supplement of paper PMC10849652
Some of the results follow.

The chains behind the UniProt entries cited, without tags or fusion partners. Where a name states a change or a piece, a line headed by the entry shows the natural chain unless it says otherwise.
UniProt Q9Y5J9: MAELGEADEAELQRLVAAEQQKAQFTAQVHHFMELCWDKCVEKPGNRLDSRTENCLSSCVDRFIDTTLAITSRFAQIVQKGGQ
UniProt Q9NWX6: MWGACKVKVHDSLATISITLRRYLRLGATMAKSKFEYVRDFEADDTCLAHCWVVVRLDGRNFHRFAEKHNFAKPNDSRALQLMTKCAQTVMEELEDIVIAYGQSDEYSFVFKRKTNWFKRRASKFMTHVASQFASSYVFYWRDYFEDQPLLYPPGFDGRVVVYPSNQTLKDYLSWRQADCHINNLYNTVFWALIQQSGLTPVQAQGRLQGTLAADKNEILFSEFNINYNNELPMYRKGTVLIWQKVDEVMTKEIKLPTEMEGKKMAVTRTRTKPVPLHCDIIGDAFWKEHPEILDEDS
UniProt P29401: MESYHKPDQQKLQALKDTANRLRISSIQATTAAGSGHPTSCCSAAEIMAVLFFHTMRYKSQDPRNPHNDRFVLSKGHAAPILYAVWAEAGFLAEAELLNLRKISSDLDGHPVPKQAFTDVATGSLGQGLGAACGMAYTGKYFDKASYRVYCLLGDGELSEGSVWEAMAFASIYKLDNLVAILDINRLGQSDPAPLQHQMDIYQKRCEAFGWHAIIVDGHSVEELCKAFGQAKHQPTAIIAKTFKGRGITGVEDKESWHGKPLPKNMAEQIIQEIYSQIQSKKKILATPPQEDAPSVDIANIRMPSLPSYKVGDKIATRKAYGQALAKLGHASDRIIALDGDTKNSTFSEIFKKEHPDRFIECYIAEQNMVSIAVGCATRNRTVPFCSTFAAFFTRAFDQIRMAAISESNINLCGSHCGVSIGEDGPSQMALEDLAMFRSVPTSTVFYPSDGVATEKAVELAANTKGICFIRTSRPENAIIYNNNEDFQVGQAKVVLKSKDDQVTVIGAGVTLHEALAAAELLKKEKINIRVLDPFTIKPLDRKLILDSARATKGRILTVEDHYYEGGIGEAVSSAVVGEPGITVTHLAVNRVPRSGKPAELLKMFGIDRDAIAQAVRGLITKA
UniProt Q9UKI8: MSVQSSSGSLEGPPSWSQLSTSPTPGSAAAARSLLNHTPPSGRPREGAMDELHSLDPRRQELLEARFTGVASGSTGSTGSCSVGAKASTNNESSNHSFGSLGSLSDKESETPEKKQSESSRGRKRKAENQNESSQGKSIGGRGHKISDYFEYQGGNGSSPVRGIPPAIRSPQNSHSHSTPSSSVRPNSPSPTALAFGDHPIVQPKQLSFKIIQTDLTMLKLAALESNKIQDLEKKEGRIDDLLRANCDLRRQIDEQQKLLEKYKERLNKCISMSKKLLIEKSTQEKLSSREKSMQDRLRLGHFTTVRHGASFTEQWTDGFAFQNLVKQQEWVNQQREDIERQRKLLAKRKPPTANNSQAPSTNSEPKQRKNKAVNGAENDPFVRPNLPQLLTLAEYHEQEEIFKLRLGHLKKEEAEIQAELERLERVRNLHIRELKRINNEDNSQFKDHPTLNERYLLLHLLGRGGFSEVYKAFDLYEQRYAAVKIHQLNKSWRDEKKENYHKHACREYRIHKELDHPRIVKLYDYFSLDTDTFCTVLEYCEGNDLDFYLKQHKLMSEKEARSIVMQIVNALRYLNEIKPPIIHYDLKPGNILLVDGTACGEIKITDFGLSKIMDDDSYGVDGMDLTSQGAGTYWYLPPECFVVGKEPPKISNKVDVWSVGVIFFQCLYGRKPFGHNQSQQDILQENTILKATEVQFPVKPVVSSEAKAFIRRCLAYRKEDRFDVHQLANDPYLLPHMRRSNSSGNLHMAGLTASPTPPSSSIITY
UniProt Q07157: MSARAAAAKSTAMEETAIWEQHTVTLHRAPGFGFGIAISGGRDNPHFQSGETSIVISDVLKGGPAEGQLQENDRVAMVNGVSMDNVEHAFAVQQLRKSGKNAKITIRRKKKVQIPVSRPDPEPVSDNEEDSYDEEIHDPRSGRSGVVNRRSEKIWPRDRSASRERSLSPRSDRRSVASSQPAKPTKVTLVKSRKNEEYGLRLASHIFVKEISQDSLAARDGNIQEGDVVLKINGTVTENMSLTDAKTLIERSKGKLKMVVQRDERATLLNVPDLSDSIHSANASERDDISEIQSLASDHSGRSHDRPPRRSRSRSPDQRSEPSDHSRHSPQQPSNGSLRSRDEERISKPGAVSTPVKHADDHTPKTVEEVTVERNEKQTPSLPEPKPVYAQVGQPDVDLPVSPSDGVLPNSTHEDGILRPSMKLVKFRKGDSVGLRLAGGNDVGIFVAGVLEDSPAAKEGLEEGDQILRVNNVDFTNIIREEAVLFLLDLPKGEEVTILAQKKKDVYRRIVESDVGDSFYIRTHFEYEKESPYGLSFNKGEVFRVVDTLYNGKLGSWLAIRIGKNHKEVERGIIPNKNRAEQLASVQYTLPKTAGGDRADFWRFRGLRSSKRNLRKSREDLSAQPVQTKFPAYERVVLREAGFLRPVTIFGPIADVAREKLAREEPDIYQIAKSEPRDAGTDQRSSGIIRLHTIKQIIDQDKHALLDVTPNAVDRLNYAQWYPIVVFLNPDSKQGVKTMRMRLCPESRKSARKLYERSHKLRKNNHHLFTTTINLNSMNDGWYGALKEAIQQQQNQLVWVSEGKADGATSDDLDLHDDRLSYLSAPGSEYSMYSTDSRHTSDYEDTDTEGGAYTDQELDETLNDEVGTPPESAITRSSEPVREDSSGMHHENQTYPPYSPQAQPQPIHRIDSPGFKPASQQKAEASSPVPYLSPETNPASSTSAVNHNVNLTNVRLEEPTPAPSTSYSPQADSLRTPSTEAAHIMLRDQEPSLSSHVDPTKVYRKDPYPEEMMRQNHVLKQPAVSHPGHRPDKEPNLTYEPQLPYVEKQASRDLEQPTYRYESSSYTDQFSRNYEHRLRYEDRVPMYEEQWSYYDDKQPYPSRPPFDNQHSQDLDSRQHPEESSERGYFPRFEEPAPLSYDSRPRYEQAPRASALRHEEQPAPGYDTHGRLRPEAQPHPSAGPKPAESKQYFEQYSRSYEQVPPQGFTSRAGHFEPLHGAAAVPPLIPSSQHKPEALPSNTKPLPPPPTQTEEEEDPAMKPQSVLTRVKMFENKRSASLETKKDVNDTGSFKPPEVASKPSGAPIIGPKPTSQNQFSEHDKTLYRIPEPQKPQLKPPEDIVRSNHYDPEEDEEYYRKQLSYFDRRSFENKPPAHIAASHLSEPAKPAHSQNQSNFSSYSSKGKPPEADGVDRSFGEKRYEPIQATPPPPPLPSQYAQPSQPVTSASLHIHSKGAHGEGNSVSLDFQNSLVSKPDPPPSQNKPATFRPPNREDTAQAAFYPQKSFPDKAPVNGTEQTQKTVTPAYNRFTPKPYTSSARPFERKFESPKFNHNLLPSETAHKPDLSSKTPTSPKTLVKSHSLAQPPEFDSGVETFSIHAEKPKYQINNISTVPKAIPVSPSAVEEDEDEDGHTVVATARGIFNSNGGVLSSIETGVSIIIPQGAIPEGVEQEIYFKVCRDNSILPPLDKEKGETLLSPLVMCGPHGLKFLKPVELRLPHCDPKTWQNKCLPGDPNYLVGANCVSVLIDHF
UniProt Q15363: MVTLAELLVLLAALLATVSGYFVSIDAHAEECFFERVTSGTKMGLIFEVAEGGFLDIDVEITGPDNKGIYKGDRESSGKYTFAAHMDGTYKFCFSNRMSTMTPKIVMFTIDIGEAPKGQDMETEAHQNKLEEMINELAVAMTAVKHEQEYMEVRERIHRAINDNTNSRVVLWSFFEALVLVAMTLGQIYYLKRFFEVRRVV
UniProt Q9HD45: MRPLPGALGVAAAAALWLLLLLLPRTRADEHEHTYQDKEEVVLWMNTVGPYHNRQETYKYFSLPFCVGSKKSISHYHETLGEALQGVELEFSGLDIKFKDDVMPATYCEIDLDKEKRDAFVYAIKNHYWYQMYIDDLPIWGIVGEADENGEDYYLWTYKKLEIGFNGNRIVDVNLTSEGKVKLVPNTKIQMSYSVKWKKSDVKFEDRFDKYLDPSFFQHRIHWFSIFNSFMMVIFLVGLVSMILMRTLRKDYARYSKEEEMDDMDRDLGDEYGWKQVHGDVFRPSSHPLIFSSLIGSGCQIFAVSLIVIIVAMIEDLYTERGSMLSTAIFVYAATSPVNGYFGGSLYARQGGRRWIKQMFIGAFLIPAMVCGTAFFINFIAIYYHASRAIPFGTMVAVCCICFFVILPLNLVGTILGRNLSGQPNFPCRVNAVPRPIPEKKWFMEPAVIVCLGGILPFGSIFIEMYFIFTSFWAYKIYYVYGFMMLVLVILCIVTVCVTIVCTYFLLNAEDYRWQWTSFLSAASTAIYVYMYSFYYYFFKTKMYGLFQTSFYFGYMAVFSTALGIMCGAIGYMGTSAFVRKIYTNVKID
UniProt Q3LXA3: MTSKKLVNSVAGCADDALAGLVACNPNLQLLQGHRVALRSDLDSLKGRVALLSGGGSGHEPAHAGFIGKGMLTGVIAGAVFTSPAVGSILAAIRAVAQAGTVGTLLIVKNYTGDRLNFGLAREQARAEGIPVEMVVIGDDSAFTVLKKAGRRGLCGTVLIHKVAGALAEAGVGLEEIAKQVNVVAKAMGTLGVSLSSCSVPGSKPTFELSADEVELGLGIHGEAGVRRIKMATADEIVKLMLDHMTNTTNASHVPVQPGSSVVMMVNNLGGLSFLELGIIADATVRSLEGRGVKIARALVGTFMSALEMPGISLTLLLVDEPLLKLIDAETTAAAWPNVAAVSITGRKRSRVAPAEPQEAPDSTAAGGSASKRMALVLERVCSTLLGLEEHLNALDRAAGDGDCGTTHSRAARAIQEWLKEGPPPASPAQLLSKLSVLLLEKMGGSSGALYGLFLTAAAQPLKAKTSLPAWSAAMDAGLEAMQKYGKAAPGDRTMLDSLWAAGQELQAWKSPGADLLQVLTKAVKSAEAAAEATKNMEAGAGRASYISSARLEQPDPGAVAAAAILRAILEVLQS
UniProt Q9BV44: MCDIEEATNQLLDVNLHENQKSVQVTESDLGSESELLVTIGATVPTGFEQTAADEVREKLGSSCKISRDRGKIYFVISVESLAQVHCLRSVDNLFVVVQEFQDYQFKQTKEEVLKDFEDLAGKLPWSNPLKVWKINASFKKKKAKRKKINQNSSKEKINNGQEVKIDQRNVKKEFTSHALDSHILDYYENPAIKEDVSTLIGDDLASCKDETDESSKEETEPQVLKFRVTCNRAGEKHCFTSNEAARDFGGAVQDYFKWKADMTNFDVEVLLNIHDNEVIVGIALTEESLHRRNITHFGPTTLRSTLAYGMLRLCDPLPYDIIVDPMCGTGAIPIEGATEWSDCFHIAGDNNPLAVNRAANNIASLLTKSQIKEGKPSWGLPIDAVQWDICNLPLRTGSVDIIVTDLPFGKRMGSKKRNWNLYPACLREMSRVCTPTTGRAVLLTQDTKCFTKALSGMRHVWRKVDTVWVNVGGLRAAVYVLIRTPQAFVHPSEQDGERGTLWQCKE
UniProt Q9NS93: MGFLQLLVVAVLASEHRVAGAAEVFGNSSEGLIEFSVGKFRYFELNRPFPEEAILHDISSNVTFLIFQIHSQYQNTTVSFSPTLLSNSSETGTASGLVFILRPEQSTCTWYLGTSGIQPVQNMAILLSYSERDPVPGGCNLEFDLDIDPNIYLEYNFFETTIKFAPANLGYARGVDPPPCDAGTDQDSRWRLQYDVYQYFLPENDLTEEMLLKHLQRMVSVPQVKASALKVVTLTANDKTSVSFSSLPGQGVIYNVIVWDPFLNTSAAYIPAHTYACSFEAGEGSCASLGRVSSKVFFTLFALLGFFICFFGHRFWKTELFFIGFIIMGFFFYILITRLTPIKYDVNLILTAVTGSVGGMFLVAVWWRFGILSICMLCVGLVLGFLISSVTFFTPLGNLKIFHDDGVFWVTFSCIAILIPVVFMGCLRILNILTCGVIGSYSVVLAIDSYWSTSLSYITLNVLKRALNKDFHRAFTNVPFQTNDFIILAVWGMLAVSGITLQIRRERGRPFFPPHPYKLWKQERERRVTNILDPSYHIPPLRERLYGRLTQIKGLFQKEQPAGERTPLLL
UniProt O60220: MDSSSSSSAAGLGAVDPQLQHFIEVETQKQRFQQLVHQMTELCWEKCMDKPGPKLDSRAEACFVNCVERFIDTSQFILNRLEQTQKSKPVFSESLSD
UniProt Q8TBQ9: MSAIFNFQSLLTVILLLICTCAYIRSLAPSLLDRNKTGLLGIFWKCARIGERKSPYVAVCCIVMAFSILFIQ
UniProt Q9BVK8: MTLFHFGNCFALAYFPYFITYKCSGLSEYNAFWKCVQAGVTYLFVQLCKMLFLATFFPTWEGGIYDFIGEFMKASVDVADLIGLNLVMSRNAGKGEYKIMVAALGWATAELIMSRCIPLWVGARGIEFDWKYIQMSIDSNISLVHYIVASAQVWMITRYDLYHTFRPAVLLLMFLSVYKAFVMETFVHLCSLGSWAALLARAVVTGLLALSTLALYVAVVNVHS
UniProt Q96B96: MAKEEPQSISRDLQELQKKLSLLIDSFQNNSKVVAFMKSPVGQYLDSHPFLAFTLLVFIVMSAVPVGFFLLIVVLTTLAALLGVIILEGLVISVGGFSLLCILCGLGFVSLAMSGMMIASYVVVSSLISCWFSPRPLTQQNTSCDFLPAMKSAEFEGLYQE

What was measured:
Assay in all cases: log2 fold change, soluble protein after heating vs DMSO (PISA); higher = thermal stabilisation; K562 lysate, 10 uM; active = over 0.2 and 3.5 SD of the protein, either way, in both replicates (recomputed)
[1] = compound: CN1CC[C@H](c2c(O)cc(O)c3c(=O)cc(-c4ccccc4Cl)oc23)[C@H](O)C1 [alvocidib]
In short: (§1)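 Quantification was by TMTpro 16plex LC-MS/MS with equalised channel sums, applied to the supernatant after 21,000xg for 90 min. Samples were crude K562 extract at 1 mg/mL protein in PBS pH 7.4 with 1 mM MgCl2, treated with 10 μM compound for 30 min, heated for 3 min across 48°C-58°C, pooled and brought to 0.5% NP-40 at 4°C. Values are log-two fold changes in thermal stability relative to solvent controls, from duplicates.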

[2] = compound: CN1CCc2c(c3ccccc3n2Cc2ccc(C(=O)NO)cc2)C1 [Tubastatin A]
In short: as §1

[3] = compound: CNC(=O)C1=CC=CC=C1NC2=NC(=NC=C2Cl)NC3=C(C=C(C=C3)N4CCOCC4)OC
In short: as §1

[4] = compound: CNC(=O)c1ccc(Nc2ncc(C(F)(F)F)c(NCc3nccnc3N(C)S(C)(=O)=O)n2)cc1 [defactinib]
In short: as §1

[5] = compound: CNc1nc(-c2ccc3c(N)n[nH]c3c2)cc(N2C[C@@H](C(=O)NC3CCCCC3)CC[C@H]2C)n1
In short: as §1

[6] = compound: COC(=O)N[C@@H](C)CNc1nccc(-c2cn(C(C)C)nc2-c2cc(Cl)cc(NS(C)(=O)=O)c2F)n1 [encorafenib]
In short: as §1

[7] = compound: COC(=O)[C@H](CCSC)NC(=O)C1=C(C=C(C=C1)NC[C@H](CS)N)C2=CC=CC=C2
In short: as §1

[8] = compound: COc1cc(Nc2ncc3c(n2)-c2ccc(Cl)cc2C(c2c(F)cccc2OC)=NC3)ccc1C(=O)O [alisertib]
In short: as §1

[9] = compound: COc1cc2nc(-c3cc(F)ccc3O)nc(N[C@@H]3CNC[C@H]3C(C)(C)O)c2cc1OC
In short: as §1

[10] = compound: COc1cc2ncnc(Nc3ccc(F)c(Cl)c3)c2cc1OCCCN1CCOCC1 [gefitinib]
In short: as §1

[11] = compound: CS(=O)(=O)CCNCc1ccc(-c2ccc3ncnc(Nc4ccc(OCc5cccc(F)c5)c(Cl)c4)c3c2)o1 [lapatinib]
In short: as §1

[12] = compound: CS(=O)(=O)N1CCN(Cc2cc3nc(-c4cccc5[nH]ncc45)nc(N4CCOCC4)c3s2)CC1 [pictilisib]
In short: as §1

[13] = compound: C[C@@H](Oc1cc(-c2cnn(C3CCNCC3)c2)cnc1N)c1c(Cl)ccc(F)c1Cl [crizotinib]
In short: as §1

[14] = compound: C[C@H](C1=CC=C(C=C1)C(=O)NC2=C3C=CNC3=NC=C2)N
In short: as §1

[15] = compound: C[C@H](Nc1ncnc2nc[nH]c12)c1cc2cccc(Cl)c2c(=O)n1-c1ccccc1 [duvelisib]
In short: as §1

[16] = compound: Cc1cc(Nc2cc(CN3CCOCC3)c3nc(C)c(Cc4ccc(Cl)cc4F)n3n2)n[nH]1 [gandotinib]
In short: as §1

[17] = compound: Cc1cc(Nc2cc(N3CCN(C)CC3)nc(Sc3ccc(NC(=O)C4CC4)cc3)n2)n[nH]1 [tozasertib]
In short: as §1

[18] = compound: Cc1ccc(-n2nc(C(C)(C)C)cc2NC(=O)Nc2ccc(OCCN3CCOCC3)c3ccccc23)cc1 [doramapimod]
In short: as §1

[19] = compound: Cc1ccc(NC(=O)c2ccc(CN3CC[C@H](N(C)C)C3)c(C(F)(F)F)c2)cc1Nc1nccc(-c2cncnc2)n1 [bafetinib]
In short: as §1

[20] = compound: Cc1cccc(CC(=O)N2CCc3c2ccc(-c2cn(C)c4ncnc(N)c24)c3F)n1
In short: as §1

Measured: log2 fold change

THEMIS2 (UniProt Q5TEJ8)
inactive: [1] -0.036 | [2] -0.069 | [3] 0.024 | [4] 0.028 | [5] 0 | [6] -0.027 | [7] 0.023 | [8] 0.052 | [9] -0.159 | [10] 0.025 | [11] -0.052 | [12] 0.029 | [13] -0.025 | [14] 0.004 | [15] -0.026 | [16] -0.001 | [17] 0.006 | [18] -0.042 | [19] -0.059 | [20] 0.065

TIMM8B (UniProt Q9Y5J9)
inactive: [1] 0.097 | [2] 0.038 | [3] 0.037 | [4] 0.126 | [5] -0.009 | [6] -0.045 | [7] 0.037 | [8] 0.035 | [9] -0.03 | [10] -0.241 | [11] 0.069 | [12] -0.059 | [13] 0.032 | [14] 0.199 | [15] 0.11 | [16] -0.105 | [17] 0.074 | [18] 0.031 | [19] -0.002 | [20] -0.136

THG1L (UniProt Q9NWX6)
inactive: [1] -0.023 | [2] -0.036 | [3] -0.008 | [4] -0.001 | [5] 0.004 | [6] -0.007 | [7] 0.029 | [8] 0.007 | [9] 0.039 | [10] -0.031 | [11] -0.011 | [12] -0.005 | [13] -0.005 | [14] 0.012 | [15] 0.045 | [16] -0.042 | [17] -0.021 | [18] -0.017 | [19] 0.025 | [20] -0.037

TKT isoform 2 (UniProt P29401)
inactive: [1] 0.009 | [2] 0.026 | [3] -0.026 | [4] -0.004 | [5] -0.011 | [6] 0 | [7] -0.038 | [8] 0.006 | [9] 0.013 | [10] -0.017 | [11] 0.003 | [12] 0.006 | [13] 0.042 | [14] -0.039 | [15] -0.022 | [16] 0.03 | [17] 0.006 | [18] -0.009 | [19] 0.011 | [20] -0.009

TLK1 isoform 2 (UniProt Q9UKI8)
inactive: [1] -0.05 | [2] -0.092 | [3] 0.046 | [4] 0.16 | [5] 0.023 | [6] -0.045 | [7] -0.14 | [8] -0.028 | [9] 0.05 | [10] 0.01 | [11] -0.047 | [12] 0.135 | [13] -0.061 | [14] -0.032 | [15] -0.048 | [17] 0.014 | [18] 0.011 | [19] -0.014 | [20] 0.022
active: [16] 0.456

TJP1 isoform 2 (UniProt Q07157)
inactive: [1] -0.011 | [2] 0.047 | [3] -0.02 | [4] -0.018 | [5] 0.043 | [6] -0.013 | [7] 0.011 | [8] -0.007 | [9] 0.007 | [10] -0.017 | [11] -0.015 | [12] -0.028 | [13] 0.016 | [14] -0.065 | [15] -0.014 | [16] 0.075 | [17] -0.002 | [18] 0.014 | [19] -0.062 | [20] 0.111

TMED2 (UniProt Q15363)
inactive: [1] 0.006 | [2] 0.044 | [3] 0.009 | [4] 0 | [5] 0.01 | [6] 0.028 | [7] -0.039 | [8] 0.018 | [9] -0.019 | [10] 0.017 | [11] -0.031 | [12] -0.034 | [13] -0.038 | [14] -0.033 | [15] -0.031 | [16] 0.017 | [17] 0.008 | [18] -0.009 | [19] -0.02 | [20] 0.013

TM9SF3 (UniProt Q9HD45)
inactive: [1] -0.051 | [2] 0.004 | [3] -0.006 | [4] 0.066 | [5] -0.019 | [6] 0.021 | [7] -0.016 | [8] -0.011 | [9] 0.001 | [10] 0.044 | [11] -0.03 | [12] -0.015 | [13] -0.023 | [14] -0.028 | [15] -0.006 | [16] -0.019 | [17] -0.016 | [18] 0.017 | [19] -0.03 | [20] 0.09

TKFC (UniProt Q3LXA3)
inactive: [1] -0.004 | [2] 0.027 | [3] 0.02 | [4] 0 | [5] 0.017 | [6] -0.038 | [7] 0.024 | [8] 0.02 | [9] 0.001 | [10] -0.028 | [11] -0.011 | [12] 0.02 | [13] -0.027 | [14] -0.039 | [15] -0.001 | [16] 0.031 | [17] -0.012 | [18] 0.016 | [19] 0.02 | [20] 0.022

THUMPD3 (UniProt Q9BV44)
inactive: [1] -0.025 | [2] 0.012 | [3] 0.034 | [4] -0.03 | [5] 0.053 | [6] -0.024 | [7] -0.033 | [8] 0.014 | [9] -0.003 | [10] -0.008 | [11] -0.029 | [12] 0.004 | [13] -0.029 | [14] 0.004 | [15] 0.013 | [16] 0.017 | [17] -0.034 | [18] 0.017 | [19] 0.013 | [20] 0

TM7SF3 (UniProt Q9NS93)
inactive: [1] 0.004 | [2] -0.018 | [3] -0.108 | [4] 0.093 | [5] 0.101 | [6] -0.031 | [7] 0.006 | [12] -0.088 | [13] -0.005 | [14] 0.064 | [15] -0.058 | [16] -0.051 | [17] 0.01 | [18] -0.027 | [19] -0.267 | [20] -0.139

TIMM8A (UniProt O60220)
inactive: [1] 0.072 | [2] 0.1 | [3] 0.12 | [4] -0.005 | [5] 0.03 | [6] 0.087 | [7] 0.038 | [8] -0.027 | [9] -0.033 | [10] -0.245 | [11] -0.035 | [12] -0.052 | [13] -0.033 | [14] 0.126 | [15] 0.109 | [16] -0.188 | [17] 0.171 | [18] -0.007 | [19] -0.036 | [20] -0.152

TMEM167A (UniProt Q8TBQ9)
inactive: [1] -0.038 | [2] -0.073 | [3] 0.023 | [4] 0.02 | [5] 0.007 | [6] 0.13 | [7] 0.044 | [8] 0.013 | [9] -0.037 | [10] -0.045 | [11] 0.023 | [12] 0.033 | [13] -0.007 | [14] -0.129 | [15] -0.05 | [16] 0.133 | [17] 0.148 | [18] 0.061 | [19] 0.017 | [20] 0.13

Two neighbouring entries already listed, for reference:
TM7SF3 (UniProt Q9NS93)
inactive: [1] 0.004 | [2] -0.018 | [3] -0.108 | [4] 0.093 | [5] 0.101 | [6] -0.031 | [7] 0.006 | [12] -0.088 | [13] -0.005 | [14] 0.064 | [15] -0.058 | [16] -0.051 | [17] 0.01 | [18] -0.027 | [19] -0.267 | [20] -0.139

TIMM8A (UniProt O60220)
inactive: [1] 0.072 | [2] 0.1 | [3] 0.12 | [4] -0.005 | [5] 0.03 | [6] 0.087 | [7] 0.038 | [8] -0.027 | [9] -0.033 | [10] -0.245 | [11] -0.035 | [12] -0.052 | [13] -0.033 | [14] 0.126 | [15] 0.109 | [16] -0.188 | [17] 0.171 | [18] -0.007 | [19] -0.036 | [20] -0.152

Next results follow:

TMEM147 (UniProt Q9BVK8)
inactive: [1] -0.125 | [2] -0.031 | [3] -0.051 | [6] 0.154 | [7] -0.04 | [8] 0.021 | [9] -0.012 | [10] 0.081 | [11] -0.089 | [12] 0.024 | [13] -0.025 | [14] -0.269 | [16] 0.08 | [17] -0.214 | [18] 0.123 | [19] -0.084 | [20] 0.175

TMEM159 isoform 2 (UniProt Q96B96)
inactive: [1] -0.039 | [2] -0.011 | [3] -0.056 | [5] -0.17 | [6] 0.135 | [7] -0.1 | [8] -0.056 | [9] 0.015 | [10] -0.045 | [11] -0.011 | [12] -0.053 | [13] -0.033 | [14] -0.078 | [15] 0.023 | [16] 0.032 | [17] 0.056 | [18] -0.083 | [19] 0.03 | [20] 0.042

THAP12 (UniProt O43422)
inactive: [1] -0.022 | [2] -0.049 | [3] 0.031 | [4] -0.001 | [5] 0.042 | [6] 0.008 | [7] -0.016 | [8] 0.052 | [9] -0.016 | [10] 0.023 | [11] -0.008 | [12] 0.009 | [13] -0.063 | [14] 0.11 | [15] 0.03 | [16] -0.043 | [17] 0.008 | [18] -0.005 | [19] -0.066 | [20] 0.018
